Measured values reported in article PMC11984319.
Results are given in words; binding and its absence hold for the method and conditions named. In cells and extracts the contact can be indirect. Here binding means that the protein was enriched with, or labelled near, the bait; the list need not be complete. Where a sequence is shown, tags or fusion partners need not be part of it.

Target: T1, GST-IRX5 (iroquois homeobox 5 fused to glutathione-S-transferase) (UniProt P78411)
T1 sequence: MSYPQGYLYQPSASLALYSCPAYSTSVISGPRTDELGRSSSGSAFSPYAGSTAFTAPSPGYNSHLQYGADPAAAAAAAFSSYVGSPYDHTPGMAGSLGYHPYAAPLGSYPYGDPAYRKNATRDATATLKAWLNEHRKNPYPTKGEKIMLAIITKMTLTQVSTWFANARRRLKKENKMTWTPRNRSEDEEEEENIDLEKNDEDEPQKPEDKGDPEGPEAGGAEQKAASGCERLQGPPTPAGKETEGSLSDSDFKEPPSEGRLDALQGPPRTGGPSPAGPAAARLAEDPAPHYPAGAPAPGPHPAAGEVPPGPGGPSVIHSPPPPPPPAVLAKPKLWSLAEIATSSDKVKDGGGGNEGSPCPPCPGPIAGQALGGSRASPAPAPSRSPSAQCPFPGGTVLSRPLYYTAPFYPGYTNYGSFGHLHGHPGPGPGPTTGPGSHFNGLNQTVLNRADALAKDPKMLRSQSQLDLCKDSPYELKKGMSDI
Assay: affinity purification with mass spectrometry; GST-IRX5 or GST alone immobilised on glutathione Sepharose 4B beads, incubated with whole-cell extracts of HepG2 cells; bound proteins eluted, SDS-PAGE and mass spectrometry; only the target purified

binding: binds
Substance: high-mobility group nucleosomal binding domain 4 (HMGN4), endogenous in HepG2 (from UniProt O00479 1-90)
